Data source: PubChem BioAssay AID743454 (Peter MacCallum Cancer Centre, 2014)
Aim: 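Genes whose loss kills vorinostat-resistant colon cancer cells under vorinostat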 (primary screen). Cell system: human HCT116-VR colon cancer cells, selected for vorinostat resistance. Reagents: siRNA pool against human genes, 40 nM siRNA pool. Time to read-out: vorinostat for 24 h, read-out about 72 h after transfection. Conditions: vorinostat at 2.5 µM final. Measurement: 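Cell viability by CellTiter-Fluor and caspase 3/7 activity by luminescence, each scaled to mock wells per plate, duplicates averaged, then robust z-scored over all plates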. Direction: viability robust z-score: higher = more viable cells than screen typical; caspase robust z-score: higher = more caspase 3/7 activity than screen typical. Rule for the call: 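Hits are knock-downs in viability class RV1/RV2 or caspase class CA1/CA2, excluding ones that killed cells in the no-drug cell-count arm; hits then retested with single siRNAs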.
Here is an unselected part of about 18,000 reagents. Of all reagents, 450 (2.5%) got an active call. 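Single biological run; no consistent viability z cut-off exists, so the class columns, not z-scores, define the calls.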 Entries without a mark were called inactive. No sequences are given here.

no.	Target gene	viability hit class	caspase hit class	viability robust z-score	caspase robust z-score
1	SFTA2	no change	no change	-0.4	-0.66
2	AGBL2	no change	no change	1.06	-0.73
3	UBL7	no change	no change	1	-0.71
4	KCNJ10	no change	no change	0.29	0.4
5	RNF217	no change	no change	0.76	-0.26
6	MARK1	no change	no change	-0.03	-0.1
7	RBCK1	no change	no change	0.14	0.63
8	TMEM63C	no change	no change	-0.92	0.88
9	PIK3R1	no change	no change	0.84	0
10	BANF1	no change	no change	0.4	0.77
11	TUSC1	no change	no change	1.31	1.09
12	MYO5C	no change	no change	0.68	1.63
13	LPAL2	no change	no change	-0.02	1.23
14	POLR1C	no change	no change	-0.21	-0.46
15	BCL7C	no change	no change	1.08	-0.24
16	EPO	no change	no change	-0.27	0.22
17	B4GALNT3	no change	no change	0.28	-0.89
18	PPP4R1	no change	no change	2.05	1.04
19	GUF1	no change	no change	0.68	-0.46
20	CLEC11A	no change	no change	0.1	-0.7
21	PRR15	no change	no change	-0.5	1.17
22	INS	no change	no change	0.66	0.7
23	SLC28A3	no change	no change	-1.46	-0.96
24	SEC16A	no change	no change	0.15	-1.03
25	PRDX5	no change	no change	1.44	-0.72
26	BPI	no change	no change	-0.07	1.53
27	SAGE1	no change	no change	0.25	0
28	OR2H1	no change	no change	0.54	-0.32
29	CWC25	no change	no change	-0.88	-1.32
30	DHRS4	no change	no change	0.15	2.96
31	PLEKHA6	no change	no change	-0.31	-0.18
32	FAM218A	no change	no change	-0.27	0.71
33	ZMAT5	no change	no change	0.04	-1.03
34	PGGHG	no change	no change	-0.74	-0.12
35	F2R	no change	no change	1.2	-0.17
36	DUOXA2	no change	no change	-0.74	-0.15
37	OR14C36	no change	no change	0.48	-0.04
38	TM7SF3	no change	no change	2.2	-0.69
39	TTF2	no change	no change	1	-0.16
40	SYN3	no change	no change	0.07	0.06
41	LMO4	no change	no change	0.88	0.04
42	PRKACA	no change	no change	0.88	-0.32
43	SLC19A2	no change	no change	1.21	-0.5
44	ZNF773	no change	no change	1.72	0.88
45	CACNG5	no change	no change	0.47	0.18
46	ILRUN	no change	no change	-0.1	0.43
47	CCDC86	no change	no change	-1.92	0.98
48	WFDC11	no change	no change	1.2	-0.28
49	STK33	no change	no change	-0.07	-0.31
50	KRTAP15-1	no change	no change	1.29	-0.49
51	PPME1	no change	no change	-0.06	3.71
52	TCF21	no change	no change	-1.25	-0.46
53	DDX6	no change	no change	-0.12	-0.86
54	PARVG	no change	no change	-1.21	-0.61
55	RNF24	no change	no change	-0.16	-0.98
56	AFTPH	no change	no change	-0.72	-0.68
57	HMCN1	no change	no change	0.16	-0.34
58	MED27	no change	no change	0.6	-0.12
59	DSTYK	no change	no change	0.49	-0.42
60	DSCAM	no change	no change	-1.42	-1.05
61	CRB2	no change	no change	1.05	-0.28
62	TAS2R41	no change	no change	0.1	-0.64
63	TMEM116	no change	no change	-0.16	0.77
64	SLC38A4	no change	no change	-0.3	-0.51
65	SNX29P1	no change	no change	-0.2	-0.78
66	VAT1	no change	no change	0.32	-1.15
67	HMGB1	no change	no change	-0.84	0.67
68	LRRC39	no change	no change	-0.04	1.18
69	UQCC1	no change	no change	0.6	-0.04
70	TTLL11	no change	no change	1.7	0.28
71	NPAS4	no change	no change	-0.55	-0.18
72	MYH3	no change	no change	0.46	-0.45
73	NCOA6	no change	no change	-1.66	3.86
